Data published in the supplement of paper PMC4604168 (melanoma cell lines).
This is one part of the list. Repeats are few or missing, and single values can be far off.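 The apoptosis fraction was the count of cleaved-PARP antibody-stained nuclei relative to all DNA-stained nuclei, imaged in 1,536-well plates. Screening doses were set so most cells survived, and baseline and induced cleaved-PARP levels vary greatly across cell lines.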

System: UACC62
Experiment: cleaved PARP positive nuclei fraction relative to DMSO control; melanoma cells; higher = more apoptosis
Details: library dose: low library concentration; 72 h

SMILES | cleaved PARP positive nuclei fraction [%]
CO[C@H]1C[C@@H]2CC[C@@H](C)[C@@](O)(O2)C(=O)C(=O)N2CCCC[C@H]2C(=O)O[C@H]([C@H](C)C[C@@H]2CC[C@@H](OCCO)[C@H](OC)C2)CC(=O)[C@H](C)/C=C(\C)[C@@H](O)[C@@H](OC)C(=O)[C@H](C)C[C@H](C)/C=C/C=C/C=C/1C [everolimus] + O=C1NC(=O)/C(=C/c2ccc(-c3ccc(F)cc3O)o2)S1 [AS252424] (first compound 0.02 µM, partner dose 1 µM) | 92
O=C(O)[C@@H]1[O][Sb](=[O])([O][Sb]2(=[O])[O][C@H]([C@H](O)CO)[C@H](O)[C@H](C(=O)O)[O]2)[O][C@H]([C@H](O)CO)[C@@H]1O (stereo partly specified) [stibogluconate] + Clc1ccc(Nc2nnc(Cc3ccncc3)c3ccccc23)cc1 [vatalanib] (first compound 2 µM, partner dose 2 µM) | 80.9
CO[C@H]1C[C@@H]2CC[C@@H](C)[C@@](O)(O2)C(=O)C(=O)N2CCCC[C@H]2C(=O)O[C@H]([C@H](C)C[C@@H]2CC[C@@H](OCCO)[C@H](OC)C2)CC(=O)[C@H](C)/C=C(\C)[C@@H](O)[C@@H](OC)C(=O)[C@H](C)C[C@H](C)/C=C/C=C/C=C/1C [everolimus] + O=C(CCCCCCC(=O)Nc1ccccc1)NO [vorinostat] (first compound 0.02 µM, partner dose 0.08 µM) | 99.2
CO[C@H]1C[C@@H]2CC[C@@H](C)[C@@](O)(O2)C(=O)C(=O)N2CCCC[C@H]2C(=O)O[C@H]([C@H](C)C[C@@H]2CC[C@@H](OCCO)[C@H](OC)C2)CC(=O)[C@H](C)/C=C(\C)[C@@H](O)[C@@H](OC)C(=O)[C@H](C)C[C@H](C)/C=C/C=C/C=C/1C [everolimus] + Clc1ccc(Nc2nnc(Cc3ccncc3)c3ccccc23)cc1 [vatalanib] (first compound 0.02 µM, partner dose 2 µM) | 285
CO[C@H]1C[C@@H]2CC[C@@H](C)[C@@](O)(O2)C(=O)C(=O)N2CCCC[C@H]2C(=O)O[C@H]([C@H](C)C[C@@H]2CC[C@@H](OCCO)[C@H](OC)C2)CC(=O)[C@H](C)/C=C(\C)[C@@H](O)[C@@H](OC)C(=O)[C@H](C)C[C@H](C)/C=C/C=C/C=C/1C [everolimus] + O=C(O)c1ccc2c(c1)nc(Nc1cccc(Cl)c1)c1ccncc12 [CX4945] (first compound 0.02 µM, partner dose 0.4 µM) | 557
CO[C@H]1C[C@@H]2CC[C@@H](C)[C@@](O)(O2)C(=O)C(=O)N2CCCC[C@H]2C(=O)O[C@H]([C@H](C)C[C@@H]2CC[C@@H](OCCO)[C@H](OC)C2)CC(=O)[C@H](C)/C=C(\C)[C@@H](O)[C@@H](OC)C(=O)[C@H](C)C[C@H](C)/C=C/C=C/C=C/1C [everolimus] + CNC(=O)c1cc(Oc2ccc(NC(=O)Nc3ccc(Cl)c(C(F)(F)F)c3)cc2)ccn1 [sorafenib] (first compound 0.02 µM, partner dose 0.4 µM) | 443
